This note sets out measurements from publication PMC5207774, “Atomic structures of fibrillar segments of hIAPP suggest tightly mated β-sheets are important for cytotoxicity” (eLife, 2017).

These are yes or no findings as the source states them, for the method shown. Some entries that bind do so weakly or less than the wild type.

The target of test [1] is hIAPP segment 15–25 WT (15-…-25) (human). Kind of test: condition: only with heat (55°C for 20 min) and 1% SDS; turbidity (absorbance at 340 nm) + negative-stain EM; fibrils formed for one week, monomer equivalent concentrations, treated with water or increasing amounts of SDS, heated at 55°C for 20 min; both purified.
Test [2] shares this target. Kind of test: turbidity (absorbance at 340 nm) + negative-stain EM; fibrils formed for one week, monomer equivalent concentrations, treated with water or increasing amounts of SDS, heated at 55°C for 20 min; both purified.

B1: hIAPP segment 15–25 WT (15-FLVHSSNNFGA-25) (peptide)
peptide: FLVHSSNNFGA
notes: human islet amyloid polypeptide (hIAPP), residues 15-25, wild type; numbers count on: the mature protein (37-residue hormone); Forms 3D nanocrystals and fibrils (striated ribbons); also called spine segment 15–25 WT; source: synthetic peptide: GenScript, greater than 98% purity
On to B1, for which the binding entry is “no binding” in test [1] and “binds weakly” in test [2].
